The target of experiment [1] is T1, TrwB/VirD4 coupling protein of plasmid R388, C-terminally His-tagged (conjugative plasmid R388) (UniProt Q04230).
T1 sequence: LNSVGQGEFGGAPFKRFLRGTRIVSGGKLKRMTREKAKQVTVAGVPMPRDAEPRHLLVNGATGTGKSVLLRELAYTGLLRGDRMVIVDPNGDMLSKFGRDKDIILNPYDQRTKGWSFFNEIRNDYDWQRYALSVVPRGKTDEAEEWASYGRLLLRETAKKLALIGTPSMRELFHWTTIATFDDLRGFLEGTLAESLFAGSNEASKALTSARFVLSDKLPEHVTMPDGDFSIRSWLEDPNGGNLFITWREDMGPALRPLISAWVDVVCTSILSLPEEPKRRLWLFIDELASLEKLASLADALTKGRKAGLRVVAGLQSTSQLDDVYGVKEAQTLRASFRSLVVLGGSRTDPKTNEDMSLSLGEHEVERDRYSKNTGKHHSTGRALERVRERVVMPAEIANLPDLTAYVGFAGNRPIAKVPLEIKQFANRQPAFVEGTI
Description: pull-down; two consecutive tag-affinity steps from DDM/digitonin/TDAO-solubilised membranes of E. coli TOP10 co-expressing the trw cluster: Strep column on TrwE-Strep, then HisTrap on His-tagged TrwB; 50 mM HEPES pH 7.6, 200 mM sodium acetate, 0.1% digitonin, 0.05 mM TDAO; SDS-PAGE, bands identified by mass spectrometry, Western blots; same composition with the ΔtrwL/virB2, ΔtrwJ/virB5 and ΔtrwD/virB11 constructs. (A western blot detects proteins with antibodies after separation by electrophoresis.)

The target in experiment [2] is TrwE/VirB10 of plasmid R388, C-terminally Strep-tagged (conjugative plasmid R388). Description: pull-down; T4SS3-10 complex purified from cells expressing pBADM11_trwN/virB1-trwE/virB10Strep_trwD/virB11 (no TrwB); SDS-PAGE, Sypro Ruby.
The target in experiment [3] is T4SS_(3-10) complex of plasmid R388 (TrwM/VirB3 to TrwE/VirB10) (conjugative plasmid R388). Description: pull-down; two consecutive tag-affinity steps from DDM/digitonin/TDAO-solubilised membranes of E. coli TOP10 co-expressing the trw cluster: Strep column on TrwE-Strep, then HisTrap on His-tagged TrwB; 50 mM HEPES pH 7.6, 200 mM sodium acetate, 0.1% digitonin, 0.05 mM TDAO; SDS-PAGE, bands identified by mass spectrometry, Western blots; same composition with the ΔtrwL/virB2, ΔtrwJ/virB5 and ΔtrwD/virB11 constructs.

The target in experiment [4] is TrwE/VirB10 of plasmid R388, C-terminally Strep-tagged (conjugative plasmid R388). The experiment is described as above.

These are yes or no findings as the source states them, for the method shown. In cells and extracts the contact can be indirect. For some assays here: A result given as binding can be weak or reduced; the word gives no strength. For some assays here: Tags and fused reporters may be left off the sequences shown.

Consider “TrwF/VirB9 of plasmid R388 (conjugative plasmid R388)”, for which, in experiment [1], the binding result is “binds”.

Turning to “TrwG/VirB8 of plasmid R388 (conjugative plasmid R388)”, the binding entry in experiment [1] was “binds”. For the molecule “TrwH/VirB7 of plasmid R388 (conjugative plasmid R388)”, the binding result in experiment [1] is “binds”. The same measure, in the same setting: under “TrwI/VirB6 of plasmid R388 (conjugative plasmid R388)” stands “binds”. Regarding “TrwJ/VirB5 of plasmid R388 (conjugative plasmid R388)”, in experiment [1], the binding entry is “binds”. For the molecule “TrwK/VirB4 of plasmid R388 (conjugative plasmid R388)”, in experiment [1], the binding result is “binds”.

Turning to “TrwM/VirB3 of plasmid R388 (conjugative plasmid R388)”, the binding entry in experiment [1] is “binds”.

B1: OmpC (protein, UniProt P06996 22-367)
chain: AEVYNKDGNKLDLYGKVDGLHYFSDNKDVDGDQTYMRLGFKGETQVTDQLTGYGQWEYQIQGNSAENENNSWTRVAFAGLKFQDVGSFDYGRNYGVVYDVTSWTDVLPEFGGDTYGSDNFMQQRGNGFATYRNTDFFGLVDGLNFAVQYQGKNGNPSGEGFTSGVTNNGRDALRQNGDGVGGSITYDYEGFGIGGAISSSKRTDAQNTAAYIGNGDRAETYTGGLKYDANNIYLAAQYTQTYNATRVGSLGWANKAQNFEAVAQYQFDFGLRPSLAYLQSKGKNLGRGYDDEDILKYVDVGATYYFNKNMSTYVDYKINLLDDNQFTRDAGINTDNIVALGLVYQF
As to B1, the binding result in experiment [2] was “no binding”.

B2: TrwB/VirD4 coupling protein of plasmid R388, C-terminally His-tagged (protein, UniProt Q04230 71-507)
chain: LNSVGQGEFGGAPFKRFLRGTRIVSGGKLKRMTREKAKQVTVAGVPMPRDAEPRHLLVNGATGTGKSVLLRELAYTGLLRGDRMVIVDPNGDMLSKFGRDKDIILNPYDQRTKGWSFFNEIRNDYDWQRYALSVVPRGKTDEAEEWASYGRLLLRETAKKLALIGTPSMRELFHWTTIATFDDLRGFLEGTLAESLFAGSNEASKALTSARFVLSDKLPEHVTMPDGDFSIRSWLEDPNGGNLFITWREDMGPALRPLISAWVDVVCTSILSLPEEPKRRLWLFIDELASLEKLASLADALTKGRKAGLRVVAGLQSTSQLDDVYGVKEAQTLRASFRSLVVLGGSRTDPKTNEDMSLSLGEHEVERDRYSKNTGKHHSTGRALERVRERVVMPAEIANLPDLTAYVGFAGNRPIAKVPLEIKQFANRQPAFVEGTI
On to B2, for which the binding result in experiment [3] and in experiment [4] was “binds” in each case.

B3: TrwB/VirD4 of plasmid R388 with a FLAG tag inserted at Thr236, N-terminally His-tagged (protein, UniProt Q04230 71-507)
chain: LNSVGQGEFGGAPFKRFLRGTRIVSGGKLKRMTREKAKQVTVAGVPMPRDAEPRHLLVNGATGTGKSVLLRELAYTGLLRGDRMVIVDPNGDMLSKFGRDKDIILNPYDQRTKGWSFFNEIRNDYDWQRYALSVVPRGKTDEAEEWASYGRLLLRETAKKLALIGTPSMRELFHWTTIATFDDLRGFLEGTLAESLFAGSNEASKALTSARFVLSDKLPEHVTMPDGDFSIRSWLEDPNGGNLFITWREDMGPALRPLISAWVDVVCTSILSLPEEPKRRLWLFIDELASLEKLASLADALTKGRKAGLRVVAGLQSTSQLDDVYGVKEAQTLRASFRSLVVLGGSRTDPKTNEDMSLSLGEHEVERDRYSKNTGKHHSTGRALERVRERVVMPAEIANLPDLTAYVGFAGNRPIAKVPLEIKQFANRQPAFVEGTI
As to B3, in experiment [3], the binding result is recorded as “binds”.

(Values after paper PMC5916273, “Structure of a VirD4 coupling protein bound to a VirB type IV secretion machinery” (The EMBO Journal, 2017).)
